Results are given in words; binding and its absence hold for the method and conditions named. Binding seen in cells or lysates may run through a third protein. Some entries that bind do so weakly or less than the wild type. For some of these results: Tags and fused reporters may be left off the sequences shown.
Columns and labels:
[1] = target: T1, synectin-binding RhoA exchange factor (Syx) (UniProt O94827); test: co-IP (discussion of the example)
T1 sequence (looked up): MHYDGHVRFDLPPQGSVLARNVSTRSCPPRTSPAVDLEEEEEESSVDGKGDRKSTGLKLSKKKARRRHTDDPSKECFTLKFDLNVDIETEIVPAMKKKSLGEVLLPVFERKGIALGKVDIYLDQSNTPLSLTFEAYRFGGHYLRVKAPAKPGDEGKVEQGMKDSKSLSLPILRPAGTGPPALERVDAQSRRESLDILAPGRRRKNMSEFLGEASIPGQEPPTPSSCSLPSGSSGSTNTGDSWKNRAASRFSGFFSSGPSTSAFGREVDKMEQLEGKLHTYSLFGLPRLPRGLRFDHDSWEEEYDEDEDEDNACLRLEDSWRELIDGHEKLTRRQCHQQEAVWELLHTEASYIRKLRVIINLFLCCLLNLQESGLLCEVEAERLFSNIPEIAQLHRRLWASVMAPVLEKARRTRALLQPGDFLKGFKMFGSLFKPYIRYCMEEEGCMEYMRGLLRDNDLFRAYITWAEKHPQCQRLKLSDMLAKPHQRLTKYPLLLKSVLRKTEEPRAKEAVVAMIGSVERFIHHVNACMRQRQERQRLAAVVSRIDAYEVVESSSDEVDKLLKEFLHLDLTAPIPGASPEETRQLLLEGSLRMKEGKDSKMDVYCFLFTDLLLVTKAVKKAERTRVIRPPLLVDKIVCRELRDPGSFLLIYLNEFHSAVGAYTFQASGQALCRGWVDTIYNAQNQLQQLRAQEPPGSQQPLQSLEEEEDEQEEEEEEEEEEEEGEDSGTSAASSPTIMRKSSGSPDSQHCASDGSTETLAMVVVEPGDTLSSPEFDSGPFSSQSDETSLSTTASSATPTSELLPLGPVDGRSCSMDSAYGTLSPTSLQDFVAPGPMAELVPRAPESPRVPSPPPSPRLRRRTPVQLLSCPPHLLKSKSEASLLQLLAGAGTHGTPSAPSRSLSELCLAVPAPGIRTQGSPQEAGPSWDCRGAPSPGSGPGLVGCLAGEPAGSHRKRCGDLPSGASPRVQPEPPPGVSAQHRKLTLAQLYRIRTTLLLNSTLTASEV

Protein sequences, listed by entry. Tags and fused reporters are not part of them. Residues count along the entry.
UniProt Q13464, residues 2-1354: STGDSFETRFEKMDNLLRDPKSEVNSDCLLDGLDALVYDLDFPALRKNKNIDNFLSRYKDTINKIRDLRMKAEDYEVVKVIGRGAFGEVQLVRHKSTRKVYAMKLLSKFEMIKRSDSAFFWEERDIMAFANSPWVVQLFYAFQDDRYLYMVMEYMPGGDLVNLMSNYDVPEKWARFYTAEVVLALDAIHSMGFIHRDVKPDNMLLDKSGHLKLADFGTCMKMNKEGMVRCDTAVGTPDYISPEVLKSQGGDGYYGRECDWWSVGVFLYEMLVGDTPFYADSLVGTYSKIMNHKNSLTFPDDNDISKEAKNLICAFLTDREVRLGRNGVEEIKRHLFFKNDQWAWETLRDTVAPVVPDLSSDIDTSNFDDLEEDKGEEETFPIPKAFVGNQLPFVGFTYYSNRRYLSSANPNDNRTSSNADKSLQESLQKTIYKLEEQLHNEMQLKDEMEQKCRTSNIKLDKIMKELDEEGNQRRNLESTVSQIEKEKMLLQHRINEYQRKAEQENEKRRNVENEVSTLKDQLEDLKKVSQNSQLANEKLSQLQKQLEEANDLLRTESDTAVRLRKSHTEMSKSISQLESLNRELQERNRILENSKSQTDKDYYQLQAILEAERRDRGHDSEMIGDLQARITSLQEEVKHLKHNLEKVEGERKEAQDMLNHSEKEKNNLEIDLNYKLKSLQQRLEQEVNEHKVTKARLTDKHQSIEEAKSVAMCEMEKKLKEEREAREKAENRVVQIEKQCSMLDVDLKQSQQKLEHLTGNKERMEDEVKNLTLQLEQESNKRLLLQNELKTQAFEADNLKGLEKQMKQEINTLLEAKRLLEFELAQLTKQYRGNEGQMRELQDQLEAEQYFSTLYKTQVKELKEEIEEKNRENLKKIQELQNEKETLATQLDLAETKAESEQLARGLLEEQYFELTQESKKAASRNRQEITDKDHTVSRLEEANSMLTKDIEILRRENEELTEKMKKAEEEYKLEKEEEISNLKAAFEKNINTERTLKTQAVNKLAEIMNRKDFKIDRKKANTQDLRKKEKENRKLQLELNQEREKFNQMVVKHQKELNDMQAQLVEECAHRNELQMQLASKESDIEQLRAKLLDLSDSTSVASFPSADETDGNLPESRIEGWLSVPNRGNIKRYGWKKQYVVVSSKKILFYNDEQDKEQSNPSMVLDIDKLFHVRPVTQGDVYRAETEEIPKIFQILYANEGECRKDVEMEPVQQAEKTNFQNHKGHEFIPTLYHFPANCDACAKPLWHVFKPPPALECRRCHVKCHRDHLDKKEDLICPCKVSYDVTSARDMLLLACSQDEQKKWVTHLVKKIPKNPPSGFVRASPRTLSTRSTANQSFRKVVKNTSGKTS

p190RhoGAP [2] = target: T2, p190RhoGAP (UniProt Q9NRY4); test: co-IP (discussion of the example)
T2 sequence (looked up): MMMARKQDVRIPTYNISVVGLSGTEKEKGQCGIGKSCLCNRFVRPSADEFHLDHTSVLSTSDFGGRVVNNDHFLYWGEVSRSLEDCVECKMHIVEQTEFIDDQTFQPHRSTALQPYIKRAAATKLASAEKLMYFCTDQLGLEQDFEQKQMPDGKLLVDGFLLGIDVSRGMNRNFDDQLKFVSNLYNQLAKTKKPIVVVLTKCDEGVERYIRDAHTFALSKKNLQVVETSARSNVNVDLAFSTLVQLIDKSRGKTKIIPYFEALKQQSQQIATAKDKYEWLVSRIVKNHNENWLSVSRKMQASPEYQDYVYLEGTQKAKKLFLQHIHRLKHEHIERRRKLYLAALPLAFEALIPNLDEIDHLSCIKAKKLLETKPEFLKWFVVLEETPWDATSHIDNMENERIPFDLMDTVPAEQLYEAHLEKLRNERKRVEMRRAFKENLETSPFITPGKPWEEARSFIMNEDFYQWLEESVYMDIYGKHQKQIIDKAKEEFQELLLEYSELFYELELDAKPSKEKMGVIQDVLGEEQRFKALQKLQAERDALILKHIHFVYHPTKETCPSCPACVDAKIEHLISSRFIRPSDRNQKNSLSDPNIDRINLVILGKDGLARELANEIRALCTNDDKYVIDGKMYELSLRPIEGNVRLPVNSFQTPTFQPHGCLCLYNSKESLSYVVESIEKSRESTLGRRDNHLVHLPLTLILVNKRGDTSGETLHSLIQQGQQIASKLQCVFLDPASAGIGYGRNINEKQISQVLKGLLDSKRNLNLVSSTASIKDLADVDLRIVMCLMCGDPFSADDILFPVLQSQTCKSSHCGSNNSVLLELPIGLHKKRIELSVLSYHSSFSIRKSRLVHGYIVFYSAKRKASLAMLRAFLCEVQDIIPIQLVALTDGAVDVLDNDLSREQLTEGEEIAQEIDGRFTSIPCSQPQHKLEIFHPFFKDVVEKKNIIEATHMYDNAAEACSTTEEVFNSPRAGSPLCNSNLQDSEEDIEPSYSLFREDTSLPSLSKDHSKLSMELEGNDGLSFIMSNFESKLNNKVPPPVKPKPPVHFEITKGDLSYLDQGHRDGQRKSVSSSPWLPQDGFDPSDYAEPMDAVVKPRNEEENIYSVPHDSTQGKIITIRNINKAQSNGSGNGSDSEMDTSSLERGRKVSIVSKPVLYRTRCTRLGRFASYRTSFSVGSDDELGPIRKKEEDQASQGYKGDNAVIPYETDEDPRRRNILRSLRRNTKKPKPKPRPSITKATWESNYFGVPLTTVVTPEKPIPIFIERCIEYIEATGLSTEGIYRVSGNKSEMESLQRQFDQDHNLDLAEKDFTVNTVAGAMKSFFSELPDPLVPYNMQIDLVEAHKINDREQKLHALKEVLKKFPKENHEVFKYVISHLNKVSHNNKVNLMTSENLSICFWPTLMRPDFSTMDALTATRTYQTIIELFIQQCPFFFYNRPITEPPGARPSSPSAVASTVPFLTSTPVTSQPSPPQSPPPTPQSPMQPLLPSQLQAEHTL

[3] = target: T1, synectin-binding RhoA exchange factor (Syx); test: co-IP with anti-flag antibody, transfected HEK293 cells
p190RhoGAP [4] = target: T2, p190RhoGAP; test: as above
[5] = target: Rho-associated coiled-coil kinase 1 (ROCK1) (UniProt Q13464); test: co-IP (discussion of the example)
[6] = target: T1, synectin-binding RhoA exchange factor (Syx); test: co-IP (summary of the example)
p190RhoGAP [7] = target: T2, p190RhoGAP; test: co-IP (summary of the example)
[8] = target: Rho-associated coiled-coil kinase 1 (ROCK1) (UniProt Q13464); test: co-IP (summary of the example)

Measured: binding

B1: flag-RhoE (protein, not shown: small tags and cut ends)
chain: MKERRASQKLSSKSIMDPNQNVKCKIVVVGDSQCGKTALLHVFAKDCFPENYVPTVFENYTASFEIDTQRIELSLWDTSGSPYYDNVRPLSYPDSDAVLICFDISRPETLDSVLKKWKGEIQEFCPNTKMLLVGCKSDLRTDVSTLVELSNHRQTPVSYDQGANMAKQIGAATYIECSALQSENSVRDIFHVATLACVNKTNKNVKRNKSQRATKRISHMPSRPELSAVATDLRKDKAKSC
binds: [1] | p190RhoGAP [2] | [3] | p190RhoGAP [4]

B2: RND3, referred to alternately as RhoE (protein)
chain: MKERRASQKLSSKSIMDPNQNVKCKIVVVGDSQCGKTALLHVFAKDCFPENYVPTVFENYTASFEIDTQRIELSLWDTSGSPYYDNVRPLSYPDSDAVLICFDISRPETLDSVLKKWKGEIQEFCPNTKMLLVGCKSDLRTDVSTLVELSNHRQTPVSYDQGANMAKQIGAATYIECSALQSENSVRDIFHVATLACVNKTNKNVKRNKSQRATKRISHMPSRPELSAVATDLRKDKAKSC
binds: [5]

B3: flag-RhoEα (protein, not shown: small tags and cut ends)
chain: MDPNQNVKCKIVVVGDSQCGKTALLHVFAKDCFPENYVPTVFENYTASFEIDTQRIELSLWDTSGSPYYDNVRPLSYPDSDAVLICFDISRPETLDSVLKKWKGEIQEFCPNTKMLLVGCKSDLRTDVSTLVELSNHRQTPVSYDQGANMAKQIGAATYIECSALQSENSVRDIFHVATLACVNKTNKNVKRNKSQRATKRISHMPSRPELSAVATDLRKDKAKSC
not listed: [5] | [8]
binds: all other assays above

B4: RhoEα, short isoform of RhoE (protein)
chain: MDPNQNVKCKIVVVGDSQCGKTALLHVFAKDCFPENYVPTVFENYTASFEIDTQRIELSLWDTSGSPYYDNVRPLSYPDSDAVLICFDISRPETLDSVLKKWKGEIQEFCPNTKMLLVGCKSDLRTDVSTLVELSNHRQTPVSYDQGANMAKQIGAATYIECSALQSENSVRDIFHVATLACVNKTNKNVKRNKSQRATKRISHMPSRPELSAVATDLRKDKAKSC
binds: [5] | [8]

Reference: patent publication US20220251568A1
